# Data published in PMC4587330.
# By UniProt entry, the sequences of proteins in these tests, tags left out.
# UniProt Q02206: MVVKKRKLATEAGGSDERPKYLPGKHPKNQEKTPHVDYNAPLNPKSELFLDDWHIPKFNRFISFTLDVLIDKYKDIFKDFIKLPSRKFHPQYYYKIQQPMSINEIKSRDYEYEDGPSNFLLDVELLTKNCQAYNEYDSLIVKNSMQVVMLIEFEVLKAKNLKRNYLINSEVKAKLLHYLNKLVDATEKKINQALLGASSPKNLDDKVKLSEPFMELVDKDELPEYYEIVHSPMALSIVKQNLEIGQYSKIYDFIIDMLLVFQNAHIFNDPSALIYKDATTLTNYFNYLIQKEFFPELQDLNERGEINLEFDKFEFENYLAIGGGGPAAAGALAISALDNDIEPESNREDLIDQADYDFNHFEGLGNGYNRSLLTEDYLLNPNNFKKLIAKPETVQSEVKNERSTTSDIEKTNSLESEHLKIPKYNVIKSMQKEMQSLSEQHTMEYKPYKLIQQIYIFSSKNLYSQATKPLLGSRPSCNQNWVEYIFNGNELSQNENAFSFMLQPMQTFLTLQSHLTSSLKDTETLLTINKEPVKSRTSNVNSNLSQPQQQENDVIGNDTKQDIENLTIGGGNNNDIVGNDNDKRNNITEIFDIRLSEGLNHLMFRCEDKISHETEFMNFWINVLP
# UniProt P43609: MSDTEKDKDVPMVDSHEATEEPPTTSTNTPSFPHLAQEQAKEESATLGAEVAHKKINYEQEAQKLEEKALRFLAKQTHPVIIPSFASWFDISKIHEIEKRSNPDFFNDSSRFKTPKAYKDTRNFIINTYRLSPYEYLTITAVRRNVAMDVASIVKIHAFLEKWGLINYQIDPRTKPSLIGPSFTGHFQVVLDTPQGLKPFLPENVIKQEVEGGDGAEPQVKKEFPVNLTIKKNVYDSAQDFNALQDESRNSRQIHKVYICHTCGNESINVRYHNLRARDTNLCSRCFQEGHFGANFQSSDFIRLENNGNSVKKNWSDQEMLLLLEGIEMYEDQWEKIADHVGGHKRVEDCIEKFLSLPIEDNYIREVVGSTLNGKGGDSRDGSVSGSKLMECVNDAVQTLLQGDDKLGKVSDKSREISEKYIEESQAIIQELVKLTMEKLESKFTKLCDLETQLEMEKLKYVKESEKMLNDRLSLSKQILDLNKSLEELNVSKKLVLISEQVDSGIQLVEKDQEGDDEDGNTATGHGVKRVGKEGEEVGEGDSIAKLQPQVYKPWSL
# UniProt Q06488: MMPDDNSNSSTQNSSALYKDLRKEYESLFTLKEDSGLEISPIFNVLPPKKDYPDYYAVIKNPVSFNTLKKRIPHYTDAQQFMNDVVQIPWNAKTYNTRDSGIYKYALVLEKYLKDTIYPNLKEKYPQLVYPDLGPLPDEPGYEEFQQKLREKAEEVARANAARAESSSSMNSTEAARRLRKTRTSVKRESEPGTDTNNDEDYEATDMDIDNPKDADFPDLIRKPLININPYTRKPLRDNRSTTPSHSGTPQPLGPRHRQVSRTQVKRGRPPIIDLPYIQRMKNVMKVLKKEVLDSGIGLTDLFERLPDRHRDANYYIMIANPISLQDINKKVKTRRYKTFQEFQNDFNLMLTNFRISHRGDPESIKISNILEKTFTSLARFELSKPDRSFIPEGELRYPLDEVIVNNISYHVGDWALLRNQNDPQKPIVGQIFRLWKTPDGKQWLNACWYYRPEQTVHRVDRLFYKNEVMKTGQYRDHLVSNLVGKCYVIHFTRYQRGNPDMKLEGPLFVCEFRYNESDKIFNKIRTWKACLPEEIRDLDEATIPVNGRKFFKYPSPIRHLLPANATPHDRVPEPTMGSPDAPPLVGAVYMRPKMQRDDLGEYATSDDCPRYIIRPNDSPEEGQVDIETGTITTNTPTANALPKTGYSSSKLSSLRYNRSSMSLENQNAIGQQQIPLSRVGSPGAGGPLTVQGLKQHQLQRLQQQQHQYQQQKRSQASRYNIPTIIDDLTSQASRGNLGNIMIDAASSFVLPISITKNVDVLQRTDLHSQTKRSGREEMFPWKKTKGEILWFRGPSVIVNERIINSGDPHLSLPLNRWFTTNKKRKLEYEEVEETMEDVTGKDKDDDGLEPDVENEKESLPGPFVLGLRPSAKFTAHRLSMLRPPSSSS
# No constants are given. Whether binding was seen depends on the method and setting. In cells and extracts the contact can be indirect. These calls come from enrichment with a bait or labelling near it, and not all partners need be listed. For some assays here: A no says only that the protein was not detected with the bait.
# Columns and labels:
# Test in all cases: affinity purification with mass spectrometry; 96-sample screen of 30 GFP-tagged baits: captured from cleared yeast lysate (500 ug) on GFP-multiTrap plate, 60 min, 4 C, 150 mM NaCl, 50 mM Tris-HCl pH 8.0; biological triplicates; 27 min method (Q Exactive Plus); enrichment against the parental strain, FDR-controlled t test and profile …
# [1] = target: RSC4, GFP-tagged bait (S. cerevisiae) (UniProt Q02206)
# [2] = target: RSC8, GFP-tagged bait (S. cerevisiae) (UniProt P43609)
# [3] = target: RSC2, GFP-tagged bait (S. cerevisiae) (UniProt Q06488)
Molecule,binding [1],binding [2],binding [3]
RSC2 (from UniProt Q06488 1-889),binds,binds,–
"RSC1 (protein, UniProt P53236 1-928) MVEQDNGFLQKLLKTQYDAVFHLKDENGIEIYPIFNVLPPKKEYPDYYIIIRNPISLNTLKKRLPHYTSPQDFVNDFAQIPWNAMTYNAKDSVIYKYAILLESFIKGKIVHNIRKHYPEVTYPSLGRIPEIFAESMQPSDLSSNPINTQENDEKAGLNPEMKMAFAKLDSSITERKPTNQDYRMQQKNSPAFPTHSASITPQPLASPTPVVNYANITSAHPKTHVRRGRPPVIDLPYVLRIKNILKMMRREVDQNNKTLTLCFEKLPDRNEEPTYYSVITDPICLMDIRKKVKSRKYRNFHTFEEDFQLMLTNFKLYYSQDQSNIIRAQLLEKNFNRLVRIELSKPDEDYLPEGELRYPLDDVEINDEKYQIGDWVLLHNPNDINKPIVGQIFRLWSTTDGNKWLNACWYFRPEQTVHRVDRLFYKNEVMKTGQYRDHPIQDIKGKCYVIHFTRFQRGDPSTKVNGPQFVCEFRYNESDKVFNKIRTWKACLPEELRDQDEPTIPVNGRKFFKYPSPIADLLPANATLNDKVPEPTEGAPTAPPLVGAVYLGPKLERDDLGEYSTSDDCPRYIIRPNDPPEEGKIDYETGTIITDTLTTSSMPRVNSSSTIRLPTLKQTKSIPSSNFRSSSNTPLLHQNFNQTSNFLKLENMNNSSHNLLSHPSVPKFQSPSLLEQSSRSKYHSAKKQTQLSSTAPKKPASKSFTLSSMINTLTAHTSKYNFNHIVIEAPGAFVVPVPMEKNIRTIQSTERFSRSNLKNAQNLGNTAINDINTANEQIIWFKGPGVKITERVIDSGNDLVRVPLNRWFCKNKRRKLDYEDIEEDVMEPPNDFSEDMIANIFNPPPSLNLDMDLNLSPSSNNSSNFMDLSTIASGDNDGKECDTAEESEDENEDTEDEHEIEDIPTTSAFGLNSSAEYLAFRLREFNKL",binds,binds,no binding
